Measurements from “University of Dundee, Small-Polar-MMV Screening Library” (2021), ChEMBL document CHEMBL3988442.

Amino acid sequences for entries named in this document (tags omitted). Residues count along the entry.
UniProt Q8IDJ8, 1-583: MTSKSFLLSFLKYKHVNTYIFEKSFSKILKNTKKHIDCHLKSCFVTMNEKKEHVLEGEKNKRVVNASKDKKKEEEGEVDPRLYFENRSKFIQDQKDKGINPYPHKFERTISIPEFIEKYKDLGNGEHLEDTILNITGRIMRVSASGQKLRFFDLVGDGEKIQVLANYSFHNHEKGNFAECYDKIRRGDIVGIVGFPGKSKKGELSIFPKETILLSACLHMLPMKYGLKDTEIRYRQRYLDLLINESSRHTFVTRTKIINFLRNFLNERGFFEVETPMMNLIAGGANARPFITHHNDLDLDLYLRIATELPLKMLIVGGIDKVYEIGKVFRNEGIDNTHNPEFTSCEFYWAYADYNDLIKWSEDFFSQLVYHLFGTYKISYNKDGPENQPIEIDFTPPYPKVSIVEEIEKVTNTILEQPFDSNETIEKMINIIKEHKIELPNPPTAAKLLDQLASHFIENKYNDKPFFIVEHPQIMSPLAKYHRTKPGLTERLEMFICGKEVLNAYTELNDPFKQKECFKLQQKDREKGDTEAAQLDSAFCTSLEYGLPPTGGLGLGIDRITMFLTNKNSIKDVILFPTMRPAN
UniProt P9WFT3, whole entry: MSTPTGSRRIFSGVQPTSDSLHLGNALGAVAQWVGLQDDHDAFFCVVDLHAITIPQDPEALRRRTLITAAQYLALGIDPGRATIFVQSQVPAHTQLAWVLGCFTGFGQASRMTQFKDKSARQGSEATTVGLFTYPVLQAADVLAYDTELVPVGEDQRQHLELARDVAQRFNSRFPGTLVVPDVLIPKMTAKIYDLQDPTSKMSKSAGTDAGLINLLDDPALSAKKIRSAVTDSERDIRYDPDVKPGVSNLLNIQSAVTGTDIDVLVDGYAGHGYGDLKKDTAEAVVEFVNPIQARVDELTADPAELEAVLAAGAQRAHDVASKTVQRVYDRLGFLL

Each number is a percent effect as filed. The controls that fix the scale are not given in the record; negative values are as filed. This is an unselected part of the compounds tested. Two or more numbers in one place are separate tests of the same structure; such repeats can differ widely. A dash means the value is not listed here; it may have been measured.

PfKRS1: 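Enzyme assay of the cytosolic lysyl-tRNA synthetase in 384-well plates, read by luminescence. Target: Lysine-tRNA ligase, Plasmodium falciparum 3D7 (UniProt Q8IDJ8). Compounds at 30 µM. Direction is inferred from only a few compounds that gave an IC50; most scored high, so higher reads as stronger inhibition. Of about 69,000 compounds tested this way, about 49 (0.071%) reached 50% or more in at least one test.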
MtTrpRS: 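Enzyme assay of tryptophanyl-tRNA synthetase; the read-out is not stated. Target: Tryptophan-tRNA ligase, Mycobacterium tuberculosis (UniProt P9WFT3). Compounds at 10 µM. Higher most likely means stronger inhibition; the record gives no direction and few retests gave an IC50. Of about 65,000 compounds tested this way, about 64 (0.098%) reached 50% or more in at least one test.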
Leishmania in macrophages: 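Cell assay of Leishmania donovani living inside macrophages; the read-out is not stated. Tested at 30 µM. Higher reads as stronger inhibition (inferred: compounds with an IC50 in retests scored well above the rest). Of about 69,000 compounds tested this way, about 1,000 (1.5%) reached 50% or more in at least one test.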

| # | SMILES | PfKRS1 | MtTrpRS | Leishmania in macrophages |
|---|---|---|---|---|
| 1 | `CN(CC(=O)N1CCN(c2cnccn2)CC1)c1ccc(Cl)cn1` | -1.268% | -1.865% | 2.462% |
| 2 | `Cc1nc(C)n(CC2CCCN(Cc3nnc(C(C)(C)C)o3)C2)n1` (stereo not given) | 1.474% | -2.648% | 10.61% |
| 3 | `CN1CCN(Cc2nnc(C3CCN(C4CCCCC4)CC3)n2C)CC1` | 5.025% | 0.4079% | 36.84% |
| 4 | `Cc1cc2ncc(C(C)NCc3cccnc3)c(C)n2n1` (stereo not given) | 4.758% | -3.515% | 11.06% |
| 5 | `CCCn1cc(Cl)c(C(=O)N2C[C@@H](O)[C@H](NC(C)=O)C2)n1` | 1.794% | -5.078% | 7.847% |
| 6 | `Cn1cc(CN2CCn3cnc(COCC4CC4)c3C2)cn1` | -0.5718% | -4.182% | - |
| 7 | `[H][C@@]12CCN(Cc3cnn(C)c3)C[C@@]1([H])[C@H](C(=O)NCc1ccco1)CCO2` | - | - | 2.026% |
| 8 | `COC1CCN(c2ccc(F)cc2CN(C)CC(N)=O)CC1` | 6.904% | -2.495% | 8.906% |
| 9 | `COc1ccccc1-c1ccc(C(=O)N2C[C@H]3CC[C@@H]2CN(C)C3)cc1` | 1.231% | 5.004% | - |
| 10 | `CC(C)N(C)Cc1cnc2n1CCN(C(=O)Cc1cccs1)C2C.O=C(O)C(F)(F)F` (stereo not given) | - | - | 15.62% |
| 11 | `COc1ccccc1N1CCN(C(=O)Cn2nc(C)c(Cl)c2C)CC1` | 2.863% | 3.584% | 31.83% |
| 12 | `CC(C)CCn1[nH]c(CNc2ccc(Cl)cc2)nc1=O` | 9.749% | 2.305% | 23.25% |
| 13 | `CSc1ccc(C(=O)C2CCCN(C(=O)CCn3cnnn3)C2)cc1` (stereo not given) | -10.36% | -3.785% | -45.24% |
| 14 | `CC[C@@H](CO)NC(=O)c1cccc(CCC(C)(C)O)c1` | 3.337% | -1.013% | -22.07% |
| 15 | `COc1ccc(C(=O)NCCNC(=O)c2cncnc2C)cc1` | 1.727% | 3.186% | 29.39% |
| 16 | `O=C(O)C(F)(F)F.O=C(O)C(F)(F)F.[H][C@@]12OCCN(Cc3nccs3)[C@@]1([H])CC[C@H]2Oc1ncccc1F` | - | - | 7.252% |
| 17 | `O=C(Cc1cccc(O)c1)N1CCCC(OCc2cccnc2)C1` (stereo not given) | 9.909% | 2.13% | 6.661% |
| 18 | `O=C1COC2(CCN(c3ccccn3)CC2)CN1Cc1ccccn1` | 8.96% | 0.5863% | 34.24% |
| 19 | `Cc1nc(N)sc1C(=O)N1CCCC(COc2ccc(F)cc2)C1` (stereo not given) | 4.575% | -2.464% | -4.794% |
| 20 | `CSc1cccc(NC(=O)Nc2c(O)oc3ccccc3c2=O)c1` | 1.615% | 1.146% | 12.18% |
| 21 | `CCN1CCN(C2CCN(CC(=O)NCC(F)(F)F)CC2)C1=O` | 1.158% | -6.304% | 11.79% |
| 22 | `O=C(O)C(F)(F)F.O=C(c1ccno1)N1CCc2ncnc(-c3ccncc3)c2CC1` | - | - | 42.24% |
| 23 | `CCn1c(C2CCNCC2)nn(CCn2ccc(C)n2)c1=O` | 5.392% | 1.817% | -4.697% |
| 24 | `CN1CCN(Cc2cnn(-c3ccc(F)cc3)c2)[C@H]2CS(=O)(=O)C[C@H]21` | 9.614% | 3.183% | - |
| 25 | `Cc1ncsc1C(=O)N1CCCC(CO)(CC2CC2)C1` (stereo not given) | 4.144% | -3.303% | 30.89% |
| 26 | `COc1ccc(CNc2c(C)nn(C(C)C)c2C)cc1` | 0.2371% | 7.356% | 15.41% |
| 27 | `O=C(CCn1cncn1)N1C[C@H]2CC[C@@H]1CN(Cc1ccncc1)C2` | -1.924% | 19.44% | - |
| 28 | `O=C(O)C(F)(F)F.[H][C@]12C[C@@H](Cn3cncn3)N(C(C)C)[C@@]1([H])CCN(Cc1cccs1)C2` | - | - | 42.71% |
| 29 | `CCc1nc(CCNC(=O)NC2CC2)sc1C` | 8.105% | -5.629% | 21.98% |
| 30 | `Cc1csc(C2(NCc3nnc(-c4ccco4)o3)CCCC2)n1` | 6.894% | -3.027% | 17.17% |
| 31 | `O=C(c1ccc(C2CCCO2)s1)N1CCN(c2ccccc2F)CC1` (stereo not given) | 2.382% | -0.0774% | -5.057% |
| 32 | `Cc1nn(C)cc1CN(C)C(=O)c1cnccn1` | -1.306% | 3.011% | -25.04% |
| 33 | `CS(=O)(=O)NCC1CCCCN1C(=O)c1ccsc1` (stereo not given) | 0.4912% | -3.271% | 30.02% |
| 34 | `CC(C)c1cc(CNC(=O)N2CCC(Cc3cnn(C)c3)C2)on1` (stereo not given) | -1.008% | 3.341% | 0.2755% |
| 35 | `COCC1CN(CC2CCOCC2)Cc2cn(CC3CCCC3)nc21` (stereo not given) | 3.536% | -4.509% | 2.29% |
| 36 | `CN(C)CCN1C(=O)CCC12CCCN(C(=O)N(C)C)CC2` (stereo not given) | 2.621% | -6.686% | - |
| 37 | `[H][C@]12CC[C@]([H])(CN(c3nccc(OC)n3)C1)N(CC1CCC1)C2=O` | - | - | 10.56% |
| 38 | `[H][C@]12CC[C@]([H])(CN(C(=O)c3ccc(N(CC)CC)cc3)C1)N(CCOC)C2` | - | - | -34.68% |
| 39 | `CCc1nsc(N2CCCN(C(=O)c3ccc(CC)o3)CC2)n1` | 4.863% | -5.464% | 22.06% |
| 40 | `CS(=O)(=O)N1CC2(CCN(c3nccs3)CC2)c2ccccc21` | 1.045% | -5.144% | 12.3% & -37.17% |
| 41 | `CCn1cc(C(=O)Nc2cc(C)ccc2C)cn1` | -2.584% | -1.387% | -3.679% |
| 42 | `NCC1CN(c2nc(-c3cccnc3)nc3c2CCNCC3)CCO1` (stereo not given) | 2.023% | 1.347% | 9.619% |
| 43 | `CCC/C=C/c1ccc(CN2CCN(C)CC2)cn1` | 1.524% | -3.122% | 19.18% |
| 44 | `CC(C(=O)N1CCc2sccc2C1)N1CCCN(C2CC2)CC1` (stereo not given) | 3.806% | -4.87% | 18.11% |
| 45 | `CNC(=O)c1cn[nH]c1C1CCN(Cc2cn(C)nc2C)C1` (stereo not given) | 1.307% | -1.412% | -11.95% |
| 46 | `O=C(NC1CCCc2c1[nH]c1ccc(F)cc21)c1n[nH]c2c1CCCC2` (stereo not given) | 2.898% | -0.9646% | 30.19% |
| 47 | `Cc1cc(C(=O)NC2CCc3nc(C)cn3C2)[nH]n1` (stereo not given) | 1.998% | 1.267% | 7.021% |
| 48 | `CN(Cc1cn2c(n1)CN(C(=O)c1ccc[nH]1)CC2)Cc1ccco1.O=C(O)C(F)(F)F` | - | - | -4.406% & 4.84% |
| 49 | `N#Cc1cccc(C(=O)NC2CCc3c(ccc(=O)n3CC3CC3)C2)c1` (stereo not given) | 5.458% | - | 14.3% |
| 50 | `O=C(C1CCC1)N1CCC(C2CCN(Cc3ccc(Cl)cc3)C2)CC1` (stereo not given) | 1.251% | 6.855% | -30.69% |
| 51 | `Cc1cc(C)cc(N(CCC#N)C(=O)CN2CCCC2c2cccs2)c1` (stereo not given) | 3.574% | -4.789% | 27.19% |
| 52 | `O=C(Nc1cccc(CNCc2cccs2)c1)C1CC1` | 1.419% | 3% | - |
| 53 | `Cc1nc[nH]c1-c1nccn1CCCN(C)C` | 2.689% | -1.656% | -5.525% |
| 54 | `CS(=O)(=O)N1CCc2nc(NC(=O)Nc3c(F)cccc3F)sc2C1` | 5.483% | 5.061% | -15.82% |
| 55 | `CC(=O)Nc1ccc(OCc2noc(C(=O)N3CCCC3)n2)cc1` | 0.183% | 2.524% | -6.436% |
| 56 | `COc1c(C2CCCN2c2ncnc3c2CCC3)c(C)nn1C` (stereo not given) | 2.792% | -4.143% | 55.59% |

For reference, 5 entries once more:

SMILES	PfKRS1	MtTrpRS	Leishmania in macrophages
Cc1nc(N)sc1C(=O)N1CCCC(COc2ccc(F)cc2)C1 (stereo not given)	4.575%	-2.464%	-4.794%
COc1c(C2CCCN2c2ncnc3c2CCC3)c(C)nn1C (stereo not given)	2.792%	-4.143%	55.59%
COc1ccccc1N1CCN(C(=O)Cn2nc(C)c(Cl)c2C)CC1	2.863%	3.584%	31.83%
O=C(Cc1cccc(O)c1)N1CCCC(OCc2cccnc2)C1 (stereo not given)	9.909%	2.13%	6.661%
Cc1cc(C)cc(N(CCC#N)C(=O)CN2CCCC2c2cccs2)c1 (stereo not given)	3.574%	-4.789%	27.19%